Patent publication US8058233B2, “Modification of feeding behavior using PYY and GLP-1” (Oregon Health and Science University, priority 2002, dated 2011)
Not every detail of the peptide structures is certain; ends, links or a residue may be inferred.

System: POMC neurons
Assay: Whole cell patch clamp recordings from POMC neurons of Pomc-EGFP mice (Example 5)
Assay type: cell-based, mouse
Settings: PYY3-36 50 nM (FIG. 8c)

**Q.** Which “reduction of frequency of IPSCs onto POMC neurons” value does the source give for “Ac-LRHYLNLLTRQRY-NH2 (C-terminus assumed) [Y2A, N-acetyl (Leu^28, Leu^31) NPY (24-36)]” here?
**A.** The value was 44.4±9.3%.
